# These are yes or no findings as the source states them, for the method shown. For part of these data: In cells and extracts the contact can be indirect. Some results given as binding are weak or reduced against the parent protein; the word gives no strength. For part of these data: Where a sequence is shown, tags or fusion partners need not be part of it.
# Amino acid sequences for entries named in this document (tags omitted).
# UniProt P04792: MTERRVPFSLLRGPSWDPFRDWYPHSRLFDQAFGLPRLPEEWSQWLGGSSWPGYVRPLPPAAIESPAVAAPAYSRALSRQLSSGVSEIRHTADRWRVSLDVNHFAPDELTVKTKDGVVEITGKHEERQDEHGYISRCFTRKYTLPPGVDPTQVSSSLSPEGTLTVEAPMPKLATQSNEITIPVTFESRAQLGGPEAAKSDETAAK
# T1: BKV agnoprotein (BK virus (BKV)) (UniProt P03085)
# T1 sequence: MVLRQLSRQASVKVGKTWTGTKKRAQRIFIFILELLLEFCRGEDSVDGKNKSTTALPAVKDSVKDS
# T2: α-SNAP (UniProt P54920)
# T2 sequence: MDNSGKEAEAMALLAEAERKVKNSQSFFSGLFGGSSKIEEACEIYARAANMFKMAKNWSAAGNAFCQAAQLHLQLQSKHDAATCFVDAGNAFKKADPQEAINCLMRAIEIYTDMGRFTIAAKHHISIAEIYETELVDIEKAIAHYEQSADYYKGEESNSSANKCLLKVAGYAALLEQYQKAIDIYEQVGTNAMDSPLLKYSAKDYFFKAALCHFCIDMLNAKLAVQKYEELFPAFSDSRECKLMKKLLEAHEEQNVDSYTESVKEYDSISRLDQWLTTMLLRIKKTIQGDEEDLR
# T3: GST-agnoprotein (BK virus (BKV)) (UniProt P03085)
# T3 sequence: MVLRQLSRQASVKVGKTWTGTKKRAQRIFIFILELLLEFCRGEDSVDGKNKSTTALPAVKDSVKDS
# T4: BKV agnoprotein expressed from the BKV genome (BK virus (BKV)) (UniProt P03085)
# T4 sequence: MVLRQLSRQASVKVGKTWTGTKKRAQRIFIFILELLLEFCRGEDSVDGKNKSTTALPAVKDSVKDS
# T5: His-α-SNAP (UniProt P54920)
# T5 sequence: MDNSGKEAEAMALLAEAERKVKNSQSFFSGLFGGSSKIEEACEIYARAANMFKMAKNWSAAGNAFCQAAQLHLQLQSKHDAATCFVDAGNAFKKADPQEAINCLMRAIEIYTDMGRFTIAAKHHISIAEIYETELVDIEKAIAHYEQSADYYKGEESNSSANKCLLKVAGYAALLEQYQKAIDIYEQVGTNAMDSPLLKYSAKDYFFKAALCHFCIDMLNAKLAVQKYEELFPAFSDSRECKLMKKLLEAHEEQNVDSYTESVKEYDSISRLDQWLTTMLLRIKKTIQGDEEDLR
# T6: purified BKV agnoprotein (BK virus (BKV)) (UniProt P03085)
# T6 sequence: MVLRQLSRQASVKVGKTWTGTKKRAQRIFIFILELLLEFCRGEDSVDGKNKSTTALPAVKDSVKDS
# B1: endogenous α-SNAP of HEK293 cells (protein, UniProt P54920 1-295)
# chain: MDNSGKEAEAMALLAEAERKVKNSQSFFSGLFGGSSKIEEACEIYARAANMFKMAKNWSAAGNAFCQAAQLHLQLQSKHDAATCFVDAGNAFKKADPQEAINCLMRAIEIYTDMGRFTIAAKHHISIAEIYETELVDIEKAIAHYEQSADYYKGEESNSSANKCLLKVAGYAALLEQYQKAIDIYEQVGTNAMDSPLLKYSAKDYFFKAALCHFCIDMLNAKLAVQKYEELFPAFSDSRECKLMKKLLEAHEEQNVDSYTESVKEYDSISRLDQWLTTMLLRIKKTIQGDEEDLR
# B2: α-SNAP (protein, UniProt P54920 1-295)
# chain: MDNSGKEAEAMALLAEAERKVKNSQSFFSGLFGGSSKIEEACEIYARAANMFKMAKNWSAAGNAFCQAAQLHLQLQSKHDAATCFVDAGNAFKKADPQEAINCLMRAIEIYTDMGRFTIAAKHHISIAEIYETELVDIEKAIAHYEQSADYYKGEESNSSANKCLLKVAGYAALLEQYQKAIDIYEQVGTNAMDSPLLKYSAKDYFFKAALCHFCIDMLNAKLAVQKYEELFPAFSDSRECKLMKKLLEAHEEQNVDSYTESVKEYDSISRLDQWLTTMLLRIKKTIQGDEEDLR
# B3: BKV agnoprotein (protein, UniProt P03085 1-66)
# chain: MVLRQLSRQASVKVGKTWTGTKKRAQRIFIFILELLLEFCRGEDSVDGKNKSTTALPAVKDSVKDS
# B4: endogenous α-SNAP of U2OS cells (protein, UniProt P54920 1-295)
# chain: MDNSGKEAEAMALLAEAERKVKNSQSFFSGLFGGSSKIEEACEIYARAANMFKMAKNWSAAGNAFCQAAQLHLQLQSKHDAATCFVDAGNAFKKADPQEAINCLMRAIEIYTDMGRFTIAAKHHISIAEIYETELVDIEKAIAHYEQSADYYKGEESNSSANKCLLKVAGYAALLEQYQKAIDIYEQVGTNAMDSPLLKYSAKDYFFKAALCHFCIDMLNAKLAVQKYEELFPAFSDSRECKLMKKLLEAHEEQNVDSYTESVKEYDSISRLDQWLTTMLLRIKKTIQGDEEDLR
# B5: purified BKV agnoprotein (protein, UniProt P03085 1-66)
# chain: MVLRQLSRQASVKVGKTWTGTKKRAQRIFIFILELLLEFCRGEDSVDGKNKSTTALPAVKDSVKDS
# B6: His-α-SNAP (protein, UniProt P54920 1-295)
# chain: MDNSGKEAEAMALLAEAERKVKNSQSFFSGLFGGSSKIEEACEIYARAANMFKMAKNWSAAGNAFCQAAQLHLQLQSKHDAATCFVDAGNAFKKADPQEAINCLMRAIEIYTDMGRFTIAAKHHISIAEIYETELVDIEKAIAHYEQSADYYKGEESNSSANKCLLKVAGYAALLEQYQKAIDIYEQVGTNAMDSPLLKYSAKDYFFKAALCHFCIDMLNAKLAVQKYEELFPAFSDSRECKLMKKLLEAHEEQNVDSYTESVKEYDSISRLDQWLTTMLLRIKKTIQGDEEDLR
# Key:
# [1] = molecular target: T1, BKV agnoprotein (BK virus (BKV)); assay: co-IP; HEK293 cells transfected with expression plasmids; whole cell extract immunoprecipitated with anti-agnoprotein or anti-α-SNAP antibodies; immunoblot
# [2] = molecular target: T2, α-SNAP; assay: co-IP; cell lysates ectopically expressing the proteins; results not shown
# [3] = molecular target: T3, GST-agnoprotein (BK virus (BKV)); assay: pull-down; 10 µg of purified GST protein added to precleared HEK293 lysate in PBS with 1% Triton-X100; recovered on glutathione beads; immunoblot for α-SNAP; only the target purified
# [4] = molecular target: GST-agnoprotein-stop38 (BK virus (BKV)) (UniProt P03085); assay: as above
# [5] = molecular target: T2, α-SNAP; assay: co-IP; HEK293 cells transfected with expression plasmids; whole cell extract immunoprecipitated with anti-agnoprotein or anti-α-SNAP antibodies; immunoblot
# [6] = molecular target: T4, BKV agnoprotein expressed from the BKV genome (BK virus (BKV)); assay: co-IP; U2OS cells transfected with the BKV genome, lysed 48 hours after transfection; agnoprotein immunoprecipitated; immunoblot for endogenous α-SNAP
# [7] = molecular target: T5, His-α-SNAP; assay: co-IP; in vitro, purified His-α-SNAP (0.15 µM) and purified BKV agnoprotein (0.68 µM); 50 mM Tris-HCl pH 8.0, 150 mM NaCl, 1 mM EDTA, 1 mM DTT; reciprocal immunoprecipitation; immunoblot; both purified
# [8] = molecular target: T6, purified BKV agnoprotein (BK virus (BKV)); assay: as above
molecule,measurement,setting,value
Hsp27 (from UniProt P04792 1-205),binding,[1],no binding
BKV agnoprotein mutant Ser-7/Ser-11/Thr-21 to alanine (from UniProt P03085 1-66),binding,[2],binds
B1,binding,[3],binds
same,binding,[4],binds
B2,binding,[1],binds
B3,binding,[5],binds
B4,binding,[6],binds
B5,binding,[7],binds
B6,binding,[8],binds

# Reference: article PMC3171462
